{"source": "PubChem BioAssay AID1224828 (NIAID, 2016)", "aim": "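Knock-downs that increase or decrease LPS-induced p65 nuclear translocation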 (primary screen)", "system": "mouse RAW264.7 G9 macrophage reporter cells (GFP-p65, Tnf promoter-mCherry)", "knock-down reagent": "siRNA pool against mouse genes, 100 nM", "time to read-out": "2 days siRNA transfection, then 40 min LPS before fixation", "conditions": "LPS (Salmonella minnesota R595) at 10 ng/ml", "measured": "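Imaged p65 nuclear translocation ratio, normalised to the plate median, converted to robust z-scores and averaged across two replicates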", "reading the numbers": "p65 translocation robust z-score: higher = more nuclear NF-kappaB p65 after LPS than the plate median; nuclear/cytoplasmic p65 ratio: higher = more nuclear NF-kappaB p65", "active means": "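Active if robust z is above 3.3 (negative regulators) or below -1.56, the Tlr4 control median (positive regulators); activity score 50 or more; control wells not called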", "meaning of the calls": "active = hit (p65 shift raised or lowered); inactive = no clear change", "note": "The whole screen tested about 17,000 reagents; shown is an unselected part. In the full data, 762 (4.5%) got an active call. 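Active calls include both raised and lowered p65 entry, mostly lowered; wells with fewer than 50 cells lack a z-score.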 Raw values vary from plate to plate and are shown uncorrected. Entries without a mark were called inactive."}
{"Gene": "A2m", "p65 translocation robust z-score": -0.83, "nuclear/cytoplasmic p65 ratio, rep 1": 1.52, "nuclear/cytoplasmic p65 ratio, rep 2": 1.46, "low cell count flag": "enough cells to score"}
{"Gene": "Cst9", "p65 translocation robust z-score": 0.78, "nuclear/cytoplasmic p65 ratio, rep 1": 1.66, "nuclear/cytoplasmic p65 ratio, rep 2": 1.94, "low cell count flag": "enough cells to score"}
{"Gene": "Wsb1", "p65 translocation robust z-score": 0.25, "nuclear/cytoplasmic p65 ratio, rep 1": 1.5, "nuclear/cytoplasmic p65 ratio, rep 2": 1.28, "low cell count flag": "enough cells to score"}
{"Gene": "Arl4a", "p65 translocation robust z-score": 0, "nuclear/cytoplasmic p65 ratio, rep 1": 1.69, "nuclear/cytoplasmic p65 ratio, rep 2": 1.55, "low cell count flag": "enough cells to score"}
{"Gene": "Fermt2", "p65 translocation robust z-score": -0.86, "nuclear/cytoplasmic p65 ratio, rep 1": 1.27, "nuclear/cytoplasmic p65 ratio, rep 2": 1.07, "low cell count flag": "enough cells to score"}
{"Gene": "5830411J07Rik", "p65 translocation robust z-score": "-2.13 (active)", "nuclear/cytoplasmic p65 ratio, rep 1": 1.18, "nuclear/cytoplasmic p65 ratio, rep 2": 1.18, "low cell count flag": "enough cells to score"}
{"Gene": "Cldn4", "p65 translocation robust z-score": 0.11, "nuclear/cytoplasmic p65 ratio, rep 1": 1.52, "nuclear/cytoplasmic p65 ratio, rep 2": 1.36, "low cell count flag": "enough cells to score"}
{"Gene": "Or8b43", "p65 translocation robust z-score": -0.05, "nuclear/cytoplasmic p65 ratio, rep 1": 1.25, "nuclear/cytoplasmic p65 ratio, rep 2": 1.26, "low cell count flag": "enough cells to score"}

Individual results from the list.
A2m, low cell count flag: enough cells to score
Cldn4, nuclear/cytoplasmic p65 ratio, rep 2 → 1.36
Under “low cell count flag”, Arl4a has enough cells to score
Entry of 5830411J07Rik under “nuclear/cytoplasmic p65 ratio, rep 1”: 1.18 (active)

The listing continues:
{"Gene": "Vps53", "nuclear/cytoplasmic p65 ratio, rep 1": 1.35, "nuclear/cytoplasmic p65 ratio, rep 2": 1.14, "low cell count flag": "fewer than 50 cells per well; well left out of scoring"}
{"Gene": "Foxg1", "p65 translocation robust z-score": 0.66, "nuclear/cytoplasmic p65 ratio, rep 1": 1.5, "nuclear/cytoplasmic p65 ratio, rep 2": 1.47, "low cell count flag": "enough cells to score"}
{"Gene": "Letmd1", "p65 translocation robust z-score": 0.3, "nuclear/cytoplasmic p65 ratio, rep 1": 1.58, "nuclear/cytoplasmic p65 ratio, rep 2": 1.74, "low cell count flag": "enough cells to score"}
{"Gene": "Surf6", "p65 translocation robust z-score": -1.22, "nuclear/cytoplasmic p65 ratio, rep 1": 1.26, "nuclear/cytoplasmic p65 ratio, rep 2": 1.13, "low cell count flag": "enough cells to score"}
{"Gene": "Pdcl", "p65 translocation robust z-score": 0.52, "nuclear/cytoplasmic p65 ratio, rep 1": 1.59, "nuclear/cytoplasmic p65 ratio, rep 2": 1.49, "low cell count flag": "enough cells to score"}
{"Gene": "Pcdh12", "p65 translocation robust z-score": -0.16, "nuclear/cytoplasmic p65 ratio, rep 1": 1.43, "nuclear/cytoplasmic p65 ratio, rep 2": 1.39, "low cell count flag": "enough cells to score"}
{"Gene": "Zfp78", "nuclear/cytoplasmic p65 ratio, rep 1": 1.24, "nuclear/cytoplasmic p65 ratio, rep 2": 1.37, "low cell count flag": "fewer than 50 cells per well; well left out of scoring"}
{"Gene": "Chtf18", "p65 translocation robust z-score": 0.44, "nuclear/cytoplasmic p65 ratio, rep 1": 1.7, "nuclear/cytoplasmic p65 ratio, rep 2": 1.81, "low cell count flag": "enough cells to score"}
{"Gene": "Twist1", "p65 translocation robust z-score": -0.81, "nuclear/cytoplasmic p65 ratio, rep 1": 1.39, "nuclear/cytoplasmic p65 ratio, rep 2": 1.39, "low cell count flag": "enough cells to score"}
{"Gene": "Ubqln2", "p65 translocation robust z-score": -0.16, "nuclear/cytoplasmic p65 ratio, rep 1": 1.39, "nuclear/cytoplasmic p65 ratio, rep 2": 1.21, "low cell count flag": "enough cells to score"}
{"Gene": "Acot11", "p65 translocation robust z-score": -0.4, "nuclear/cytoplasmic p65 ratio, rep 1": 1.46, "nuclear/cytoplasmic p65 ratio, rep 2": 1.46, "low cell count flag": "enough cells to score"}
{"Gene": "Selenbp1", "p65 translocation robust z-score": 0.74, "nuclear/cytoplasmic p65 ratio, rep 1": 1.6, "nuclear/cytoplasmic p65 ratio, rep 2": 1.71, "low cell count flag": "enough cells to score"}
{"Gene": "Sik1", "p65 translocation robust z-score": -0.38, "nuclear/cytoplasmic p65 ratio, rep 1": 1.56, "nuclear/cytoplasmic p65 ratio, rep 2": 1.38, "low cell count flag": "enough cells to score"}
